16 compounds from the supplement of paper PMC4604168 (melanoma cell lines) can be followed below.

Molecules are shown by their SMILES. This is one part of the list. Single values are uncertain, as repeats are few or missing.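 Cells were imaged in 1,536-well plates, and nuclei stained with an antibody against cleaved PARP were counted against all DNA-stained nuclei to give the apoptosis fraction. Screening doses were chosen to leave most cells alive, and resting and induced cleaved-PARP levels differ strongly between cell lines.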

The assay concerns UACC257. The experiment in a line: cleaved PARP positive nuclei fraction relative to DMSO control; melanoma cells; higher = more apoptosis. Conditions: library dose: low library concentration; 72 h.
`O=C(CCCCCCC(=O)Nc1ccccc1)NO` [vorinostat] + O=C(O)C(=O)Nc1sc2c(c1C(=O)O)CCNC2 [TCS401] (first compound 0.08 µM, partner dose 1.66667 µM): the “cleaved PARP positive nuclei fraction” value was found to be 260%.
Consider `OCCn1cc(-c2cnc3nnn(Cc4ccc5ncccc5c4)c3n2)cn1` + c1cc(-c2cnn3cc(-c4ccc(OCCN5CCCCC5)cc4)cnc23)ccn1 [Dorsomorphin] (first compound 1 µM, partner dose 0.4 µM), for which the “cleaved PARP positive nuclei fraction” value was 112%.
For `CC1(C)NC(=O)N(c2ccc([N+](=O)[O-])c(C(F)(F)F)c2)C1=O` [nilutamide] + CCCCCCCCCCCC1=C(O)C(=O)C=C(O)C1=O [Embelin] (first compound 1 µM, partner dose 1.2 µM) the value was 71.9%.
For `Cn1nnc2c(C(N)=O)ncn2c1=O` [temozolomide] + COc1ccc2c(c1)CCC1C2CCC2(C)C(NCCCCCCN3C(=O)C=CC3=O)CCC12 [U73122] (first compound 2 µM, partner dose 0.4 µM) the value was 132%; for `Cn1nnc2c(C(N)=O)ncn2c1=O` [temozolomide] + O=S(=O)(c1ccccc1)N(CC(F)(F)F)c1ccc(C(O)(C(F)(F)F)C(F)(F)F)cc1 [T0901317] (first compound 2 µM, partner dose 1.4 µM), 192%; for `O=C(CCCCCCC(=O)Nc1ccccc1)NO` [vorinostat] + O=c1cc(-c2cccc3c2Sc2ccccc2S3)oc(N2CCOCC2)c1 [KU55933] (first compound 0.08 µM, partner dose 1 µM), 86.7%.
For `C[C@@H]1CCN(C(=O)CC#N)C[C@@H]1N(C)c1ncnc2[nH]ccc12` + CC(C)CCN1c2nc(Nc3cc(F)c(O)c(F)c3)ncc2N(C)C(=O)C1C [BID1870] (first compound 1 µM, partner dose 0.2 µM) the value was 127%.
Consider `Cn1nnc2c(C(N)=O)ncn2c1=O` [temozolomide] + COc1ccc(-c2ccc3c(N4CCOCC4)nc(N4C[C@@H](C)O[C@@H](C)C4)nc3n2)cc1CO [KU0063794] (first compound 2 µM, partner dose 0.02 µM), for which the “cleaved PARP positive nuclei fraction” value came to 188%.
For `Nc1cccc2c1CN(C1CCC(=O)NC1=O)C2=O` (stereo unspecified) [lenalidomide] + CCN(CC)CCCCNc1ncc2cc(-c3cc(OC)cc(OC)c3)c(NC(=O)NC(C)(C)C)nc2n1 [PD173074] (first compound 1 µM, partner dose 0.1 µM) the value was 164%; for `Cc1nc(Nc2ncc(C(=O)Nc3c(C)cccc3Cl)s2)cc(N2CCN(CCO)CC2)n1` [dasatanib] + CCCCCCCCCCCC1=C(O)C(=O)C=C(O)C1=O [Embelin] (first compound 0.004 µM, partner dose 1.2 µM), 87%.
For `O=C(Nc1cccc(Cl)c1)Nc1ncc(CCNc2ncnc3ccsc23)s1` + Cn1cc(/C=C2\C(=O)Nc3cccnc32)c2ccccc21 [GW441756] (first compound 0.0008 µM, partner dose 0.4 µM) the value was 32%; for `Nc1cccc2c1CN(C1CCC(=O)NC1=O)C2=O` (stereo unspecified) [lenalidomide] + COc1ccc(COc2ccc(Cc3cnc(N)nc3N)cc2OC)cc1 [GW2580] (first compound 1 µM, partner dose 1 µM), 104%; for `Cc1ccc(NC(=O)c2cccc(N(C)C)c2)cc1NC(=O)c1ccc(O)cc1` + O=c1cc(-c2cccc3c2Sc2ccccc2S3)oc(N2CCOCC2)c1 [KU55933] (first compound 2 µM, partner dose 1 µM), 63.7%.
To `OCCn1cc(-c2cnc3nnn(Cc4ccc5ncccc5c4)c3n2)cn1` + Cc1cc([N+](=O)[O-])ccc1NS(=O)(=O)c1cc(Cl)ccc1Cl [FH535] (first compound 1 µM, partner dose 1 µM) belongs 103%; to `Cn1cncc1[C@@](N)(c1ccc(Cl)cc1)c1ccc2c(c1)c(-c1cccc(Cl)c1)cc(=O)n2C` [tipifarnib] + O=c1cc(-c2cccc3c2Sc2ccccc2S3)oc(N2CCOCC2)c1 [KU55933] (first compound 0.01 µM, partner dose 1 µM), 76%; to `NC(=O)Nc1cc(-c2cccc(F)c2)sc1C(=O)N[C@H]1CCCNC1` + c1cc(-c2cnn3cc(-c4ccc(OCCN5CCCCC5)cc4)cnc23)ccn1 [Dorsomorphin] (first compound 0.02 µM, partner dose 0.4 µM), 73.9%.
